From paper PMC5591944

The chains behind the UniProt entries cited, without tags or fusion partners. Where a name states a change or a piece, a line headed by the entry shows the natural chain unless it says otherwise.
UniProt Q9LDU5: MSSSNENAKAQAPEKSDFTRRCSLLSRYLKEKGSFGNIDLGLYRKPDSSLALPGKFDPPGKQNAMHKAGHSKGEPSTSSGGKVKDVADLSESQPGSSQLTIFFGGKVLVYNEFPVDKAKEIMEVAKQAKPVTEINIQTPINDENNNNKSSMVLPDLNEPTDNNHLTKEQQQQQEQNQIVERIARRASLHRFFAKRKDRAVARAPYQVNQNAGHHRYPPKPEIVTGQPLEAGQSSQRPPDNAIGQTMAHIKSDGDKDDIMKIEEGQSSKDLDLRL
UniProt Q9C5K8: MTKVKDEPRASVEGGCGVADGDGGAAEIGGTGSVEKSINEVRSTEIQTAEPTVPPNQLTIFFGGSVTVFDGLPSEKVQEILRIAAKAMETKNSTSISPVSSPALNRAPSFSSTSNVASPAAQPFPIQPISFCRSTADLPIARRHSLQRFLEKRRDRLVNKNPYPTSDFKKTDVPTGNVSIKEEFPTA
UniProt Q9S7M2: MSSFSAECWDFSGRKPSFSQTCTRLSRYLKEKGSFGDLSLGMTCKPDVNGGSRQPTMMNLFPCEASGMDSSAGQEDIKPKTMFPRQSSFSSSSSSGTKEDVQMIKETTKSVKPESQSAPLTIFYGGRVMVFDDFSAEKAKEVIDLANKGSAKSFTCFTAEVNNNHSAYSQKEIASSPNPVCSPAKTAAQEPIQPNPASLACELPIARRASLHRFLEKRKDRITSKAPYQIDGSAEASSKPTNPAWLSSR
UniProt Q9C9E3: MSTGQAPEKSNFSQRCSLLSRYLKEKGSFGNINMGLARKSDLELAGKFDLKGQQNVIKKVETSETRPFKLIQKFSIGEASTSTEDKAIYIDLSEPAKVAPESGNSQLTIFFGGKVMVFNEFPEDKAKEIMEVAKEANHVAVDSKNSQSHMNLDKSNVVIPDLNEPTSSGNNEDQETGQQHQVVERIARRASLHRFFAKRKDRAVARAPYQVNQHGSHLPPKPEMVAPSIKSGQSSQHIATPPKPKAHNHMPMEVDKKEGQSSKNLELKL

T1: cLUC-MYB21 (Arabidopsis thaliana) (UniProt Q9LK95)
T1 sequence: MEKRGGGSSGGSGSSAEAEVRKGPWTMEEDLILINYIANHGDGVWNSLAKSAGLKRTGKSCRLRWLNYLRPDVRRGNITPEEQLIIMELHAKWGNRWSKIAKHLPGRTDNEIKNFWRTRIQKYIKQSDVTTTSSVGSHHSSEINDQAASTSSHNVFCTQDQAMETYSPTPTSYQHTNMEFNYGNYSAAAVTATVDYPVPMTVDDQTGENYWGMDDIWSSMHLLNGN

T2: cLUC-MYB24 (Arabidopsis thaliana) (UniProt Q9SPG9)
T2 sequence: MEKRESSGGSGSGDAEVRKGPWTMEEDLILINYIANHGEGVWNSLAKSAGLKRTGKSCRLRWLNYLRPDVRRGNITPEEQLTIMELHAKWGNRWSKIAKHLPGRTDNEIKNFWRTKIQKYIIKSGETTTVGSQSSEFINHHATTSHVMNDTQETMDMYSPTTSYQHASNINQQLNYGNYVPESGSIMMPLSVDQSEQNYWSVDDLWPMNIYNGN


Columns and labels:
[1] = target: MYB21NT fused with the DNA binding domain (BD) in pLexA (Arabidopsis thaliana) (UniProt Q9LK95); test: two-hybrid; Matchmaker LexA Two-Hybrid System (Clontech) in yeast; MYB21NT or MYB24NT fused with BD in pLexA, partners fused with AD in pB42AD
[2] = target: T1, cLUC-MYB21 (Arabidopsis thaliana); test: split reporter; firefly luciferase complementation imaging (LCI); nLUC and cLUC fusions co-infiltrated by Agrobacterium into N. benthamiana leaves; LUC signals detected 60 h after co-infiltration
[3] = target: T2, cLUC-MYB24 (Arabidopsis thaliana); test: as above

| Molecule | binding [1] | binding [2] | binding [3] |
| --- | --- | --- | --- |
| JAZ5 fused with the activation domain (AD) in pB42AD (from UniProt Q9LDU5) | binds |  |  |
| JAZ12 fused with the activation domain (AD) in pB42AD (from UniProt Q9C5K8) | binds |  |  |
| JAZ9 fused with the activation domain (AD) in pB42AD (protein, UniProt Q8W4J8 1-267) MERDFLGLSDKQYLSNNVKHEVNDDAVEERGLSTKAAREWGKSKVFATSSFMPSSDFQEAKAFPGAYQWGSVSAANVFRRCQFGGAFQNATPLLLGGSVPLPTHPSLVPRVASSGSSPQLTIFYGGTISVFNDISPDKAQAIMLCAGNGLKGETGDSKPVREAERMYGKQIHNTAATSSSSATHTDNFSRCRDTPVAATNAMSMIESFNAAPRNMIPSVPQARKASLARFLEKRKERLMSAMPYKKMLLDLSTGESSGMNYSSTSPT | no binding |  |  |
| JAZ8 fused with the activation domain (AD) in pB42AD (protein, UniProt Q8LBM2 1-131) MKLQQNCDLELRLFPTSYDSDSSDTTSVVESTSSGNPQPNEESQRITIFYNGKMCFSSDVTHLQARSIISIASREMKTKSSSNGSDPPNKSTSFHHNQLPNPKASMKKSLQSFLQKRKIRIQATSPYHSRR | binds |  |  |
| JAZ7 fused with the activation domain (AD) in pB42AD (protein, UniProt O64687 1-148) MIIIIKNCDKPLLNFKEMEMQTKCDLELRLLTSSYDSDFHSSLDESSSSEISQPKQESQILTIFYNGHMCVSSDLTHLEANAILSLASRDVEEKSLSLRSSDGSDPPTIPNNSTRFHYQKASMKRSLHSFLQKRSLRIQATSPYHRYR | no binding |  |  |

Further lines, results first:

| binding [1] | binding [2] | binding [3] | Molecule |
| --- | --- | --- | --- |
| binds |  |  | JAZ2 fused with the activation domain (AD) in pB42AD (from UniProt Q9S7M2) |
|  | binds | binds | JAZ5-nLUC (from UniProt Q9LDU5) |
| binds |  |  | JAZ6 fused with the activation domain (AD) in pB42AD (from UniProt Q9C9E3) |
| binds |  |  | JAZ4 fused with the activation domain (AD) in pB42AD (protein, UniProt Q58G47 1-310) MERDFLGLGSKLSPITVKEETNEDSAPSRGMMDWSFSSKVGSGPQFLSFGTSQQETRVNTVNDHLLSSAAMDQNQRTYFSSLQEDRVFPGSSQQDQTTITVSMSEPNYINSFINHQHLGGSPIMAPPVSVFPAPTTIRSSSKPLPPQLTIFYAGSVLVYQDIAPEKAQAIMLLAGNGPHAKPVSQPKPQKLVHHSLPTTDPPTMPPSFLPSISYIVSETRSSGSNGVTGLGPTKTKASLASTRNNQTAAFSMAPTVGLPQTRKASLARFLEKRKERVINVSPYYVDNKSSIDCRTLMSECVSCPPAHHLH |
| binds |  |  | JAZ11 fused with the activation domain (AD) in pB42AD (protein, UniProt Q9M246 1-238) MAEVNGDFPVPSFADGTGSVSAGLDLLVERSIHEARSTEPDASTQLTIIFGGSCRVFNGVPAQKVQEIIRIAFAGKQTKNVTGINPALNRALSFSTVADLPIARRRSLQRFLEKRRDRSTKPDGSMILPSQLTIIFGGSFSVFDGIPAEKVQEILHIAAAAKATETINLTSINPALKRAISFSNASTVACVSTADVPIARRRSLQRFFEKRRHRFVHTKPYSATTSEADKNETSPIVT |
| binds |  |  | JAZ10 fused with the activation domain (AD) in pB42AD (protein, UniProt Q93ZM9 1-197) MSKATIELDFLGLEKKQTNNAPKPKFQKFLDRRRSFRDIQGAISKIDPEIIKSLLASTGNNSDSSAKSRSVPSTPREDQPQIPISPVHASLARSSTELVSGTVPMTIFYNGSVSVFQVSRNKAGEIMKVANEAASKKDESSMETDLSVILPTTLRPKLFGQNLEGDLPIARRKSLQRFLEKRKERLVSTSPYYPTSA |

No constants are given. Whether binding was seen depends on the method and setting. A result given as binding can be weak or reduced; the word gives no strength. Tags and fused reporters may be left off the sequences shown. For part of these data: In cells and extracts the contact can be indirect.
